Assay: Cleaning effect: removal of drilling fluid from a measuring beaker
Settings: Table 1; products used as 5% aqueous solutions, 200 ml, 8 g ester-oil drilling fluid aged 16 h at 200° F., shaken 3 minutes; reduction in weight

Substance | Performance in % (cleaning performance) [%]
Na lauryl sulfate C12 [V2] | 62
Na lauryl sulfate C12/14 [V1] | 75

— patent publication US7959743B2, “Lithium salts of fatty alcohol sulphates for cleaning boreholes, boring devices and borings” (priority 2004, dated 2011)
